Experimental data from PubChem BioAssay AID504444 (National Center for Advancing Translational Sciences (NCATS), 2011).
“And” between values parts separate entries of the source, which are not always exact repeats. Identical values can stand only once. About 7,500 (2.1%) of roughly 360,000 compounds were called active. Inconclusive results, whose numbers are uncertain, are shown with a selection of clear calls. The call rests on the fitted dose curve; in most records, active means well fitted inhibition curve with a large enough effect; inconclusive means small, poorly fitted or top-dose-only effect, or effect the other way; inactive means flat fitted curve, though single readings scatter. A potency beside an inconclusive call is a rough fit, not a confirmed value.

Test: Nrf2 qHTS screen for inhibitors; further: nearly all actives have a fitted effect of over 60% in size
Settings: A549 ARE-Fluc reporter, luciferase luminescence, 18-24 h; activity change, negative = inhibition: at 46 µM (top of the series)
In short: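 In this cell-based qHTS, ARE-driven firefly luciferase in A549 cells reports Nrf2 activity; the luminescent signal after BugLite lysis is the measured value, with a prior CellTiter-Fluor read for cell health.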
On the % scale 0 is the no-effect control and ±100 the full control effect; potency means the concentration at half of the fitted maximal effect.

Row | Structure (SMILES) | activity change, negative = inhibition | Potency
1 | COc1ccc(CNC(=O)c2cnc3sc(N4CCCC4)nn3c2=O)c(OC)c1 | inactive: 11.8% | 
2 | Cc1cc(C(=O)NCCC2=CCCCC2)c(C)o1 |  | inconclusive: 2.59 µM [activator, full curve]
3 | O=C(CSc1ccc(-c2ccccn2)nn1)Nc1cccc(F)c1 |  | inconclusive: 29.1 µM [falling, single point]
4 | CS(=O)(=O)c1ccc(NC(=O)c2cccc(S(=O)(=O)N3CCN(Cc4ccccc4)CC3)c2)cc1 |  | active: 13 µM
5 | Cc1ccc(S(=O)(=O)N2CCN(Cc3cc(C(C)(C)C)ccc3O)CC2)cc1 |  | inconclusive: 16.4 µM [falling, partial curve, poor fit]
6 | Fc1ccc(OCc2nnc(-c3ccccc3Br)o2)c(Cl)c1 |  | inconclusive: 20.6 µM [activator, single point]
7 | CC(C)CNC(=O)/C(C#N)=C1\N=C(NC(=O)c2ccco2)c2ccccc21 |  | inconclusive: 23.1 µM [falling, single point]
8 | CCc1ccc(Nc2nnc(-n3nc(C)cc3C)c3ccccc23)cc1 | inactive: 9.43% | 
9 | CC(C)Oc1cccc(C(=O)C2CCCN(Cc3cnc(N4CCOCC4)s3)C2)c1 (stereo unspecified) |  | active: 9.2 µM
10 | Cc1ccc(C)c(N2CCN(C(=O)c3cc(S(=O)(=O)N4CCOCC4)ccc3F)CC2)c1 |  | inconclusive: 25.9 µM [falling, single point]
11 | CC(C)NC(=O)Nc1ccc(Br)cc1Cl |  | inconclusive: 23.1 µM [falling, partial curve]
12 | CC(C)c1c(O)ccc2c1CC[C@H]1C(C)(C)CCC[C@]21C |  | inconclusive: 32.6 µM [falling, single point]
13 | Cc1ccc(Nc2cc(C)nc3nncn23)c(C)c1 | inactive: 4.64% | 
14 | CCN1CCN(c2cc(SC(C)C)nc(-c3ccc(OC)cc3)n2)CC1 |  | inconclusive: 29.1 µM [falling, single point]
15 | COc1ccc(/C=C/C(=O)NCC(=O)N/N=C(\C)Cc2ccccc2)cc1 |  | inconclusive: 32.6 µM [falling, partial curve, poor fit]
16 | O=C(N/N=C/c1ccc(OCc2ccccc2)cc1)c1ccc(O)cc1 |  | inconclusive: 18.4 µM [activator, single point]
17 | CC(=O)Oc1c(-c2ccco2)oc2ccccc2c1=O |  | inconclusive: 32.6 µM [falling, partial curve, poor fit]
18 | Clc1cc2nc(-c3cccnc3Cl)[nH]c2cc1Cl |  | inconclusive: 3.66 µM [activator, full curve]
19 | CCC(C)N=Cc1c(NCc2ccco2)nc2c(C)cccn2c1=O (stereo unspecified) | inactive: -4.6% | 
20 | Cc1ccccc1N(CC(=O)NCC1CCCO1)C(=O)CCC(=O)Nc1nccs1 (stereo unspecified) | inactive: -9.62% | 
21 | COc1ccc(Cn2c(=O)[nH]c3cc(C(=O)N4CCN(C(=O)c5ccco5)CC4)ccc3c2=O)cc1 |  | inconclusive: 16.4 µM [falling, single point]

Row | Structure (SMILES) | activity change, negative = inhibition | Potency
22 | CCOc1ccc(-c2nc3ccccc3c(=O)o2)cc1 |  | inconclusive: 2.91 µM [activator, full curve] and inconclusive: 3.66 µM [activator, full curve]
23 | CCOC(=O)c1cc2c(c(-c3ccccc3)n1)[C@H](CCO)N(S(=O)(=O)C(C)(C)C)C2 |  | inconclusive: 5.17 µM [activator, full curve, poor fit]
24 | C#CC(C)(CC)NC(=O)Cn1nnc(-c2ccc(OCc3c(F)cccc3Cl)cc2)n1 (stereo unspecified) |  | inconclusive: 29.1 µM [falling, single point]
25 | COc1cccc(C(C(=O)NC(C)(C)C)N(CCc2ccccc2)C(=O)CCC(=O)Nc2cc(C)on2)c1OC (stereo unspecified) |  | inconclusive: 29.1 µM [falling, single point]
26 | Cc1ccc(-c2nn(-c3ccccc3)cc2CN(Cc2ccccc2)C(=O)c2ccco2)o1 |  | inconclusive: 20.6 µM [falling, single point]
27 | CCN(CC)S(=O)(=O)c1ccc2[nH]c(=O)cc(C(=O)Nc3ccc(C)c(S(=O)(=O)N(CC)CC)c3)c2c1 | inactive: -24.6% | 
28 | CC(C)C1OC(c2cccc(NC(=O)c3cccs3)c2)OCC1(C)C (stereo unspecified) |  | inconclusive: 23.1 µM [falling, partial curve]
29 | Cc1c(NC(=O)C(C)OC(=O)/C=C/c2ccc3c(c2)OCO3)c(=O)n(-c2ccccc2)n1C (stereo unspecified) |  | inconclusive: 20.6 µM [activator, single point]
30 | COc1ccccc1C(=O)Nc1nc(-c2ccc3c(c2)OCCO3)cs1 |  | active: 23.1 µM
31 | Cc1ccc(-n2c(=O)c3ccc(C(=O)NCc4ccccc4Cl)cc3n(CC(=O)Nc3ccc(C)cc3C)c2=O)cc1 | inactive: 3.97% | 
32 | CS(=O)(=O)Nc1ccc(C(=O)Nc2ccc3ccccc3c2)cc1 |  | inconclusive: 29.1 µM [activator, single point]
33 | CN(C(=O)c1cccc(NC(=O)Cc2ccc(NC(=O)C3CCCN(C(=O)C4CCCCC4)C3)cc2)c1)C1CCCCC1 (stereo unspecified) |  | inconclusive: 18.4 µM [falling, single point]
34 | O=C(CSc1ncc2c(n1)-c1ccccc1N(Cc1ccc(F)cc1)S2(=O)=O)NCCc1ccccc1 |  | inconclusive: 23.1 µM [falling, partial curve, poor fit]
35 | Cc1ccccc1CC1(CO)CCCN(C(=O)c2ccccc2Cl)C1 (stereo unspecified) | inactive: -13.7% | 
36 | CCOC(=O)c1cnc(SCC(=O)Nc2ccc(NC(C)=O)c(OC)c2)nc1N |  | inconclusive: 32.6 µM [falling, partial curve, poor fit]
37 | CNc1sc(C(=O)c2ccccc2F)c(N)c1-c1nc2ccccc2s1 |  | inconclusive: 9.2 µM [activator, partial curve]
38 | CCCc1cc(C(=O)Nc2ccc(C(C)=O)cc2)no1 |  | inconclusive: 16.4 µM [activator, partial curve]
39 | CCOC(=O)CNC(=O)c1ccc(OCC(F)(F)F)cc1 |  | inconclusive: 29.1 µM [activator, single point]
40 | COc1ccc([C@H]2CC(=O)C=C(c3cccc4c3Oc3ccccc3S4)C2)cc1OC |  | inconclusive: 25.9 µM [falling, partial curve, poor fit]
41 | CC(C)(C)C(=O)Nc1nnc(SCC(=O)Nc2nccs2)s1 | inactive: 0.238% | 
